The other results are listed elsewhere or left out. Shown are side measurements of this screen, not its main read-out; they come without a call. Most of these compounds were active or inconclusive in the main read-out, so they are no random draw. Words in brackets tell the shape of the fitted curve; partial curves, single points and poor fits give uncertain potencies.
Assay: qHTS Assay for Lipid Storage Modulators in Drosophila S3 Cells;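 on cell number change: cells counted by Cell Tracker Red CMTPX staining in the red channel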
Details: BODIPY lipid droplet fluorescence, 18-24 h; for cell number change: measured here: cell count max response, cells fed with added oleic acid
Outline: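 Drosophila S3 cells got compounds at several concentrations plus oleic acid (400 uM solution). Laser-scanning cytometry with 488 nm excitation read lipid droplets at 500-530 nm and cells at 575-640 nm. Percent activity was relative to 20 uM Triacsin C.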

[1] = measured here: cell number channel AC50, cells fed with added oleic acid
[2] = measured here: lipid fluorescence (Fed channel) AC50, cells fed with added oleic acid

| SMILES | cell number change [%] | AC50 [1] | AC50 [2] |
| --- | --- | --- | --- |
| COc1ccc(Cl)cc1NC(=O)c1nnn(CC(=O)Nc2ccc(C)c(C)c2)c1N | 70.7 | 20600 nM [rising, partial curve] |  |
| CCOC(=O)COc1ccc2c(c1)C(=O)CC(C)(C)O2 | -35.8 | 46.1 nM [falling, full curve] | 651 nM [falling, full curve] |
| Cc1ccc(NC(=O)CSCC(=O)N(C)CC(=O)Nc2ccccc2C(F)(F)F)cc1 |  | 73.1 nM [rising, full curve, poor fit] | 1460 nM [falling, full curve, poor fit] |
| COc1ccc(OC)c(NC(=O)CSc2nnnn2-c2ccc3c(c2)OCO3)c1 | 30.6 | 1030 nM [rising, full curve, poor fit] | 820 nM [rising, full curve] |
| CC(C)(C)CC(C)(C)NCC(O)COc1c(F)cc(Br)cc1F (stereo not drawn) | -34.2 | 18400 nM [falling, single point] | 29100 nM [falling, single point] |
| COc1ccc(-c2c(-c3cc(OC)cc(OC)c3)n(C)c3ccc(-c4ccc(SC)cc4)cc23)cc1 | 11.8 |  | 580 nM [rising, full curve] |
| COc1ccccc1OCC(=O)NCc1ccco1 | 14.3 | 731 nM [falling, partial curve] | 5170 nM [falling, single point] |
| CCCCC(CC)Cn1c(N)c(C#N)c2nc3ccccc3nc21 (stereo not drawn) | 72.2 | 1840 nM [rising, partial curve] | 2060 nM [rising, partial curve] |
| COc1c(C)cc(C(=O)C2CCCN(C(=O)c3ccc4[nH]ccc4c3)C2)cc1C (stereo not drawn) | -55 | 23100 nM [falling, single point] | 18400 nM [falling, partial curve] |
| CC(C)(C)c1ccc(S(=O)(=O)N2CCC(NC(=O)c3ccco3)CC2)cc1 | 183 | 8200 nM [rising, partial curve] | 366 nM [falling, full curve] |
| COc1ccc(C(CC(=O)O)NS(=O)(=O)c2ccc(C)cc2)cc1 (stereo not drawn) |  |  | 6510 nM [falling, full curve] |
| Cn1nnnc1SCC(=O)N1CCN(S(=O)(=O)c2ccc(Cl)cc2)CC1 | -31.4 | 6510 nM [falling, single point] | 3660 nM [falling, single point] |
| COc1ccc(-n2ncc3c(=O)n(CC(=O)OCc4ccccc4)cnc32)cc1 | 11.8 |  | 651 nM [falling, full curve] |
| Cc1ccc2c(c1)c1c3n2CCN=C3CCC1 | -3.13 |  | 461 nM [falling, single point] |
| COc1cc(NC(=O)COC(=O)CNC(=O)c2ccc(Cl)cc2)c(C)cc1[N+](=O)[O-] | -66.1 | 20600 nM [falling, partial curve, poor fit] | 1840 nM [falling, partial curve] |
| CCN1C=C(C(=O)OC)C(c2cccc(C)c2)C(C(=O)OC)=C1 | -43 | 6510 nM [falling, partial curve] | 5800 nM [falling, full curve] |
| O=c1c2ccccc2cnn1Cc1nnc(-c2cccs2)o1 | 5.13 | 130 nM [rising, full curve, poor fit] |  |
| O=C(N/N=C/c1ccc2c(c1)OCO2)c1cc(-c2ccccc2)nc2ccccc12 | 18.4 |  | 6510 nM [rising, full curve] |
| O=C(COc1ccc(Br)cc1)N1CCCCCC1 | 42.2 | 4610 nM [rising, partial curve, poor fit] |  |

| SMILES | cell number change [%] | AC50 [1] | AC50 [2] |
| --- | --- | --- | --- |
| COc1cccc2[nH]c3c(N4CCC5(CC4)OCCO5)ncnc3c12 | 30.5 | 1030 nM [rising, full curve, poor fit] |  |
| Fc1ccccc1-c1csc(=Nc2cccnc2)n1CC1CCCO1 (stereo not drawn) | -1.84 |  |  |
| CC(C)(C)OC(=O)N1CCNc2ccccc2C1 | 50.2 | 10300 nM [rising, partial curve] |  |
| O=C(NCCC(=O)N1CCN(c2ccccc2O)CC1)c1ccc(Cl)cc1 | -9.18 |  |  |
| COc1cc(C(=S)N2CCN(C)CC2)ccc1OCC(=O)NCc1ccccc1 | -14.9 |  | 116 nM [rising, full curve, poor fit] |
| CC(/C=C/c1ccccc1)=N/NC(=O)CCC(=O)Nc1ccccc1C | 6.74 |  |  |
| O=C(N/N=C/c1ccc(COc2ccc(Br)cc2)o1)c1ccco1 | 38.2 | 1460 nM [rising, partial curve] | 2310 nM [rising, partial curve] |
| CC(=O)N1CCN(S(=O)(=O)c2cccc(C(=O)NNC(=O)COc3ccc(Cl)cc3C)c2)CC1 | -36.9 |  |  |
| OC(COCC1CC=CCC1)Cn1cnc2ccccc21 (stereo not drawn) | 1.75 |  |  |
| COCCn1c(C)nnc1SCC(=O)Nc1ccccc1[N+](=O)[O-] | 13.5 |  | 130 nM [rising, full curve, poor fit] |
| CCNCC(=O)Nc1ccc(N2CCOCC2)cc1 | -11.1 | 920 nM [falling, full curve, poor fit] | 2310 nM [falling, partial curve, poor fit] |
| CNS(=O)(=O)c1cccc(C(=O)Nc2cccnc2)c1 | 4.65 | 4610 nM [falling, partial curve, poor fit] | 1460 nM [falling, full curve] |
| O=C(NCCO)/C(=C/c1cccc([N+](=O)[O-])c1)NC(=O)c1ccco1 | -7.62 |  |  |
| Cc1ccc(C(=O)CN(CCC(=O)O)C(=O)c2ccncc2)cc1 | 10.1 |  |  |
| O=C(OCC(=O)N1CCOCC1)c1ccccc1O | 13.1 |  | 29100 nM [rising, single point] |
| O=C(CCOc1ccccc1F)N1CCN(c2ccccc2O)CC1 | -20.4 |  | 130 nM [falling, full curve, poor fit] |
| O=C(Nc1ccc(F)cc1)Nc1ccc2ccccc2n1 | 41.8 | 16400 nM [rising, partial curve, poor fit] |  |
| O=C(OCCNC(=O)c1ccc2ccccc2n1)c1cccnc1 |  | 1300 nM [rising, partial curve] |  |
| O=S(=O)(c1ccc2ccccc2c1)N1CCC(c2nc(-c3ccncc3)no2)CC1 | -31.7 | 10300 nM [falling, partial curve, poor fit] | 14600 nM [falling, partial curve, poor fit] |

Reprinted at random: 3 entries already listed

| SMILES | cell number change [%] | AC50 [1] | AC50 [2] |
| --- | --- | --- | --- |
| O=C(CCOc1ccccc1F)N1CCN(c2ccccc2O)CC1 | -20.4 |  | 130 nM [falling, full curve, poor fit] |
| Fc1ccccc1-c1csc(=Nc2cccnc2)n1CC1CCCO1 (stereo not drawn) | -1.84 |  |  |
| O=C(NCCC(=O)N1CCN(c2ccccc2O)CC1)c1ccc(Cl)cc1 | -9.18 |  |  |

Some values from the list.
Entry for COc1cc(C(=S)N2CCN(C)CC2)ccc1OCC(=O)NCc1ccccc1 under cell number change [%]: -14.9
Entry for O=C(OCC(=O)N1CCOCC1)c1ccccc1O under AC50 [2]: 29100 nM [rising, single point]

Later entries

| SMILES | cell number change [%] | AC50 [1] | AC50 [2] |
| --- | --- | --- | --- |
| NCc1ccc(S(N)(=O)=O)cc1 | -5.57 |  | 820 nM [falling, full curve, poor fit] |
| CCn1c(O)c(N=NC(=O)CNC(=O)/C=C/c2ccccc2)c2ccccc21 | -25.4 | 1460 nM [falling, full curve, poor fit] | 2590 nM [falling, full curve, poor fit] |
| CN(C(=O)NC1CCCCC1)c1ccccc1 | -47.4 | 29100 nM [falling, single point] |  |
| COc1ccc(S(=O)(=O)NCc2ccncc2)cc1NC(=O)c1ccccc1 | -27.9 | 2060 nM [falling, full curve, poor fit] |  |
| CC(=O)Nc1ccc(N/C=C/C(=O)c2ccccc2)cc1 | 3.05 |  |  |
| O=C(C1=C[C@@H](c2csc3ccccc23)C[C@@H](OCc2ccc(CO)cc2)O1)N1CCN(Cc2ccc3c(c2)OCO3)CC1 | -27.6 |  | 16400 nM [falling, partial curve] |
| CSc1c2c(nc3ncnn13)CCC2 |  | 5.17 nM [falling, full curve, poor fit] |  |
| Cc1cc(S(=O)(=O)N2CCN(c3ccccn3)CC2)ccc1F | -9.82 |  |  |
| COc1ccc(C(=O)NCc2ccc(C(=O)NCC(OC)OC)cc2)cc1OC |  |  | 580 nM [rising, full curve] |
| COc1ccc(C=C2c3ccccc3C(=O)c3ccccc32)c(OC)c1 | -17.8 |  |  |
| CCCCC(=O)Nc1cccc(C(C)O)c1 (stereo not drawn) | -16.8 |  | 58 nM [falling, full curve, poor fit] |
| O=C(c1ccc2c(=O)n(Cc3ccc(Cl)cc3)c(=S)[nH]c2c1)N1CCCC1 | 13.7 |  | 580 nM [rising, single point] |
| CN(N)c1nc2ccccc2nc1C(F)(F)F | -10.3 | 6510 nM [falling, single point] |  |
| CC(C)(C)c1ccc(NC(=S)NCc2cccs2)cc1 | -76.7 | 5170 nM [falling, partial curve, poor fit] |  |
| O=S(=O)(Nc1ncccn1)c1ccc(NC(=S)NCc2cccnc2)cc1 | 7.31 | 411 nM [falling, single point] | 580 nM [falling, single point] |
| O=C(COc1ccccc1)Nc1ccc(S(=O)(=O)Nc2ncccn2)cc1 | -35.4 | 731 nM [falling, partial curve, poor fit] | 580 nM [falling, full curve] |
| Cc1ccccc1CSCC(=O)c1c(N)n(C)c(=O)n(C)c1=O | 151 | 8200 nM [rising, partial curve] | 6510 nM [rising, partial curve] |
| CCN(CC)S(=O)(=O)c1ccc(N2CCOCC2)c(NC(=O)C2CC2)c1 | 22.1 |  |  |
| O=C(CCC1CCCC1)N1CCN(C(=O)c2ccco2)CC1 | 18 | 580 nM [rising, partial curve] | 6510 nM [rising, partial curve, poor fit] |

Reference: PubChem BioAssay AID2685 (National Center for Advancing Translational Sciences (NCATS), 2010)
